Laboratory results published in the supplement of paper PMC12067093, “Discovery and optimisation of a covalent ligand for TRIM25 and its application to targeted protein ubiquitination” (Chemical Science, 2025).
This is one part of the list.

Sequences of proteins named here, by UniProt entry; tags and fusion partners are left off. A change or cut given only in a name is not applied to a line headed by its entry.
UniProt P06493, whole entry, looked up: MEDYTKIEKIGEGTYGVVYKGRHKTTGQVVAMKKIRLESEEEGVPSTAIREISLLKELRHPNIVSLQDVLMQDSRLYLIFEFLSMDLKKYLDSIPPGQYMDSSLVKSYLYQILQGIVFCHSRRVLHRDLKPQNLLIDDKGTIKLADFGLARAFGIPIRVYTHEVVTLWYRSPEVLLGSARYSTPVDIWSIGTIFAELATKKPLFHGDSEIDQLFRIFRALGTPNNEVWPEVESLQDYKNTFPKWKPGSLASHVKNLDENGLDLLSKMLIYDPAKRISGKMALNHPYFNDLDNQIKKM
UniProt O95319: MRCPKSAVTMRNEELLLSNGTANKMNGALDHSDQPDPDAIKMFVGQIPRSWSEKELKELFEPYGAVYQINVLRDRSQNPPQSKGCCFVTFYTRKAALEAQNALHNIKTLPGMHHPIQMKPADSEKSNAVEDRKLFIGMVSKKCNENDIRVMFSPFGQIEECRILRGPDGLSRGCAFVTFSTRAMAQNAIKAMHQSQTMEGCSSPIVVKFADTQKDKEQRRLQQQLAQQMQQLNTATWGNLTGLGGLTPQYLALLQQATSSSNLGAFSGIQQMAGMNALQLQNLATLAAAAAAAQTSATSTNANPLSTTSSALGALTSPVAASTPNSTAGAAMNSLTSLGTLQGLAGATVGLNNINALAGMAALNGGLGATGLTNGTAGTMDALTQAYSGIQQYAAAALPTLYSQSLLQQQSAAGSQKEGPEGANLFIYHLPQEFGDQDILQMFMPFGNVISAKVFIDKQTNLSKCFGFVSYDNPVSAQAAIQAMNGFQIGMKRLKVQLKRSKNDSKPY
UniProt P60953, whole entry, looked up: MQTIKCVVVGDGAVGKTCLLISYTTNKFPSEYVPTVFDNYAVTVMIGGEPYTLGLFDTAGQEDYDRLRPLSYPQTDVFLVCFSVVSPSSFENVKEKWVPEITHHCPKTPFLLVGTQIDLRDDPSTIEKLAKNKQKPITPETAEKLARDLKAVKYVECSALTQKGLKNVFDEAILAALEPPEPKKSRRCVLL
UniProt Q92879: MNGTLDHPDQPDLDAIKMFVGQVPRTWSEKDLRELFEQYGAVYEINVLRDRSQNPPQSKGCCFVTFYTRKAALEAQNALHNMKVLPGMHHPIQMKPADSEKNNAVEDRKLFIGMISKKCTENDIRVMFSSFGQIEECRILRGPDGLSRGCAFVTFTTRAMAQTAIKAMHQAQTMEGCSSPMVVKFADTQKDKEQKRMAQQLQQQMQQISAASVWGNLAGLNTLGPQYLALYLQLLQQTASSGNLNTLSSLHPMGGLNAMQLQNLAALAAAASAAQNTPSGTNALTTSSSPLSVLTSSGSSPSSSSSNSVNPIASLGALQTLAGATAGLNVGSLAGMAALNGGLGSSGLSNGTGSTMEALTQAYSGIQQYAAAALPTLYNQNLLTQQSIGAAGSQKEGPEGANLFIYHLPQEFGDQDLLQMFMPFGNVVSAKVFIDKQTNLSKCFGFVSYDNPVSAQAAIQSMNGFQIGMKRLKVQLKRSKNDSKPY
UniProt P49454: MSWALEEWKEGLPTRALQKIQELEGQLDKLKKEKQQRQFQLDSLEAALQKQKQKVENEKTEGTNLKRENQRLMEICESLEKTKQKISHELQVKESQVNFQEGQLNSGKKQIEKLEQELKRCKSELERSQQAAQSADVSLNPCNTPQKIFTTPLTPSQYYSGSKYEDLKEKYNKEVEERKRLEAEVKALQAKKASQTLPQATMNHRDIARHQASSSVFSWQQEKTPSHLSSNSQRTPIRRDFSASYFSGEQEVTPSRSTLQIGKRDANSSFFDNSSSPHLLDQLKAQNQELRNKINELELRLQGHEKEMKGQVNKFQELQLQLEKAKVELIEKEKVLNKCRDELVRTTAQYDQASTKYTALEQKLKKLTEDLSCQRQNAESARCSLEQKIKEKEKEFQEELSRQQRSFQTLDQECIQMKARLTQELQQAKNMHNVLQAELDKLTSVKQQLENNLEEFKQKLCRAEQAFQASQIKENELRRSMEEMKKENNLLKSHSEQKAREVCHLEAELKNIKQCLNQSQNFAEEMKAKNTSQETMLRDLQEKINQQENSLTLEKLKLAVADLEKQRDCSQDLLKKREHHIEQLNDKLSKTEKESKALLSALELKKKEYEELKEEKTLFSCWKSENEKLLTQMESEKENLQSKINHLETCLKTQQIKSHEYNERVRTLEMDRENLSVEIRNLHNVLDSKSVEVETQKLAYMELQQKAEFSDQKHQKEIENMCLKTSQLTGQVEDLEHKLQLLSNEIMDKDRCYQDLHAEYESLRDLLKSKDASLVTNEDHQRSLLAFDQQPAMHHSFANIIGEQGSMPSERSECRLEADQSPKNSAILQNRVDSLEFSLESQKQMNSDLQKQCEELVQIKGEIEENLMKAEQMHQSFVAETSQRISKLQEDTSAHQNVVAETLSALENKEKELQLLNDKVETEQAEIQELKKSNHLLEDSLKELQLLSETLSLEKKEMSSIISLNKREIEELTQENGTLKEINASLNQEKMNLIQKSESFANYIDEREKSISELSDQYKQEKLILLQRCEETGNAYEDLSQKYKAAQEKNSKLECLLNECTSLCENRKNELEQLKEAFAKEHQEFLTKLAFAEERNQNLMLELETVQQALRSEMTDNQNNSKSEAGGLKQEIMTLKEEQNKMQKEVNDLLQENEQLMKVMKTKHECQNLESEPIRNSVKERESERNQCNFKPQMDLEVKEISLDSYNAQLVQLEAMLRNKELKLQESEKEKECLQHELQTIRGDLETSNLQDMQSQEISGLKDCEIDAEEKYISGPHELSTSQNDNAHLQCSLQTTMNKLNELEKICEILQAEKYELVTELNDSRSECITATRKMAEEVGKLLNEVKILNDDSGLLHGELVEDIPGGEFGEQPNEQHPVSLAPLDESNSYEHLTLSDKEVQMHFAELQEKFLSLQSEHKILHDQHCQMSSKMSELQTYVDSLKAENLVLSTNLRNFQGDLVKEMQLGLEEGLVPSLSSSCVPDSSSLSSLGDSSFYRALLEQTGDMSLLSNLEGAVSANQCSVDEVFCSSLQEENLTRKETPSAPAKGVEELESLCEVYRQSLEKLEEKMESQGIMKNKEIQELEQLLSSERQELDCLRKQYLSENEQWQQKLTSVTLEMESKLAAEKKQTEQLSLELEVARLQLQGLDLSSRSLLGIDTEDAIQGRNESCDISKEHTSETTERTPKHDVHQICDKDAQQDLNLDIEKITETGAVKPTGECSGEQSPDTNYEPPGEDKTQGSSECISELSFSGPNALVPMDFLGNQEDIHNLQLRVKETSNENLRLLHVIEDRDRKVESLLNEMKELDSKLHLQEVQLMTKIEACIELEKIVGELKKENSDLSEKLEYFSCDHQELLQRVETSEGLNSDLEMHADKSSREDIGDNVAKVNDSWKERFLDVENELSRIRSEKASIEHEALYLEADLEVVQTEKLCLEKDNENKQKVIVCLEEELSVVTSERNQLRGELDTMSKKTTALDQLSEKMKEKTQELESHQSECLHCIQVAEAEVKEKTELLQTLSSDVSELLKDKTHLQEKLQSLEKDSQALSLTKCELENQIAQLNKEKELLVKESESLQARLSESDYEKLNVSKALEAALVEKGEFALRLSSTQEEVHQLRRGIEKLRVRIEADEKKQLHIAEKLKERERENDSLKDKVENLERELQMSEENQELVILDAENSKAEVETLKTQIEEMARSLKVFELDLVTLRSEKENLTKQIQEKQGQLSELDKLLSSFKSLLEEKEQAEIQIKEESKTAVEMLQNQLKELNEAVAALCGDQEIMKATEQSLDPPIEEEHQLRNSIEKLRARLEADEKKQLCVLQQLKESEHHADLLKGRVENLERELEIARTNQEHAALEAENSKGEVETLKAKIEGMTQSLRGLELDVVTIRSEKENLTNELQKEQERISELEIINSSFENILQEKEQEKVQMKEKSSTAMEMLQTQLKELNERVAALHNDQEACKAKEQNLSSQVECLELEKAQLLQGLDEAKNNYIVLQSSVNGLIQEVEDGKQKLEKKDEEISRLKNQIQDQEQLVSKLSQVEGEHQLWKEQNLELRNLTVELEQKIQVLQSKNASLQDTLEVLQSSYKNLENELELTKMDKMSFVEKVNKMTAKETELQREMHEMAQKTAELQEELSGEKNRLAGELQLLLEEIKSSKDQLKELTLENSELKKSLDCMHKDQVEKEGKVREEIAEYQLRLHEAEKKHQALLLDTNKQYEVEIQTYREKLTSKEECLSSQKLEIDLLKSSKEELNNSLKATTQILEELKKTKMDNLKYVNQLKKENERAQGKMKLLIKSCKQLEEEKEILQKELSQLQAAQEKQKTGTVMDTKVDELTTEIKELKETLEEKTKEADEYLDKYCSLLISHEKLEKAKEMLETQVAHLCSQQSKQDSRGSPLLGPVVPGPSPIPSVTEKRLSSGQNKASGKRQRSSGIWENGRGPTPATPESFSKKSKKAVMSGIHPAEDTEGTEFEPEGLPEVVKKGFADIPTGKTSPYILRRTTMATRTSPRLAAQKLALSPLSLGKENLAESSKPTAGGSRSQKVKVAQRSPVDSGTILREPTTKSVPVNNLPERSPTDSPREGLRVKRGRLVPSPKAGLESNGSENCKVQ
UniProt Q9NRR8: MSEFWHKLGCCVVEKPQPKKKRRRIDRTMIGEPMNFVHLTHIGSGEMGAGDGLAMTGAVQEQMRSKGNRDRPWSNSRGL
UniProt Q96SN8: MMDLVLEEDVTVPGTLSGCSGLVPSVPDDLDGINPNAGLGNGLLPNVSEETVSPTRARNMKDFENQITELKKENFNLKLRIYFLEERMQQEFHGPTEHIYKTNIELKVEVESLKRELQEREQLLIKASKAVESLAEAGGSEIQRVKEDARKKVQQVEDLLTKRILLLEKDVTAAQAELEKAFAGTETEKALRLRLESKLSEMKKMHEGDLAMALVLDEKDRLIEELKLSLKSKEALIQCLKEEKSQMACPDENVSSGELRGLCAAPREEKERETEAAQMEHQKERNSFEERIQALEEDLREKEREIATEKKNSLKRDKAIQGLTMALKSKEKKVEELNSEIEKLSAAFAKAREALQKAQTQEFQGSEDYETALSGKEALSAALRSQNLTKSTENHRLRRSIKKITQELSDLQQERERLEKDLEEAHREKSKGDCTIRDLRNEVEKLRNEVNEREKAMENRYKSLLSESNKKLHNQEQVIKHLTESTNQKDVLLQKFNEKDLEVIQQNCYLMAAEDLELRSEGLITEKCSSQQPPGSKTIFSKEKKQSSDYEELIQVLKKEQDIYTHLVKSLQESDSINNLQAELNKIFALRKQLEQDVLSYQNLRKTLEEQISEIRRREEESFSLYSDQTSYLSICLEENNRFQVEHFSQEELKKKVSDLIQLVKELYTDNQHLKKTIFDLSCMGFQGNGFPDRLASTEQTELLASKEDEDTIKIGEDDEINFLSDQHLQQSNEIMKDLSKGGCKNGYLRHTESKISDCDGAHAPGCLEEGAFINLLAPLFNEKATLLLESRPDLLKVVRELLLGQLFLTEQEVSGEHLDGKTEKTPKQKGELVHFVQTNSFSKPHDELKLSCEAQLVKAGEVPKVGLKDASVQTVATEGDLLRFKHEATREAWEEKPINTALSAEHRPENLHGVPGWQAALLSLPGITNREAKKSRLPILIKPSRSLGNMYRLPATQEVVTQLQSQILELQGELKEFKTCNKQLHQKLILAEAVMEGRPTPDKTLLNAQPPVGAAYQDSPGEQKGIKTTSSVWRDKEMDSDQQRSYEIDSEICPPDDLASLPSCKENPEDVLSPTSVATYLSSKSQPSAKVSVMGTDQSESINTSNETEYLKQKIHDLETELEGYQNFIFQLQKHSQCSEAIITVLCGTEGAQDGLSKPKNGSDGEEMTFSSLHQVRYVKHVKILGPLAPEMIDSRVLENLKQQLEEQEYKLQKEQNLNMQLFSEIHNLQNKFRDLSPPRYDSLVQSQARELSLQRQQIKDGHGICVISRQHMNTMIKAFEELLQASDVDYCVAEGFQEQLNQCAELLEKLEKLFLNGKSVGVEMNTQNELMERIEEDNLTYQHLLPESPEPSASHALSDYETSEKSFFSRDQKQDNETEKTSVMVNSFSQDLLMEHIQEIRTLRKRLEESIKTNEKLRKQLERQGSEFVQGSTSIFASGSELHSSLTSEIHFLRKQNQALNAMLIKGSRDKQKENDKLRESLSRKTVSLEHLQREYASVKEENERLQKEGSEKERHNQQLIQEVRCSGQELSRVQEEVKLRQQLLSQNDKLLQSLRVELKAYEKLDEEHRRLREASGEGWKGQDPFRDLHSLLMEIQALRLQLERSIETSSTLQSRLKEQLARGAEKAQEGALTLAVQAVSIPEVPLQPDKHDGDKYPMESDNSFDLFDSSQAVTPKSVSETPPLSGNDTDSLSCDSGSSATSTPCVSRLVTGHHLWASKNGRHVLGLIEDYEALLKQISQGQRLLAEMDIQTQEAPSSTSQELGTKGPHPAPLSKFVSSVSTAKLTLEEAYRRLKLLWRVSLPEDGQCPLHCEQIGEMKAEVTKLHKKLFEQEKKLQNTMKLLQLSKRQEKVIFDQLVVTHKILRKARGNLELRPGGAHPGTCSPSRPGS

Compound: Cc1cc(ccc1-c1ccccc1)C(=O)N1CCCN(CC1)C(=O)CCl [compound 10]
Experiment: probe-labelled cysteine peptide fold change vs DMSO (competition) (log2 fold change); higher = less target engagement (more negative = stronger competition)
Conditions: THP-1, incubation time: 4 h
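Note: competitive profiling in live THP-1 cells: cysteine peptides tagged with an iodoacetamide desthiobiotin (IA-DTB) probe, intensity after compound treatment relative to DMSO-treated cells.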

Target | probe-labelled cysteine peptide fold change (10 µM) | probe-labelled cysteine peptide fold change (50 µM)
CDK1_P06493_119_SYLYQILQGIVFCHSR (UniProt P06493) | -0.0167 | -0.101
CCT8_P50990_244_IAVYSCPFDGMITETK (UniProt P50990) | -0.00607 | -0.342
CDK5RAP3_Q96JB5_68_INAAIQDMPESEEIAQLLSGSYIHYFHCLR (UniProt Q96JB5) | 0.106 | 0.283
CELF2_O95319_85_GCCFVTFYTR (UniProt O95319) | 0.00559 | -0.01
CDK5RAP3_Q96JB5_165_EQFYHSCK (UniProt Q96JB5) | -0.0527 | 0.0562
CEP164_Q9UPV0_437_ISEHLLDVDVLSPVLGGACR (UniProt Q9UPV0) | -0.298 | 0.236
CDC42_P60953_157_YVECSALTQK (UniProt P60953) | 0.0457 | 0.0315
CELF1_Q92879_177_AMHQAQTMEGCSSPMVVK (UniProt Q92879) | -0.311 | -0.155
CDK12_Q9NYV4_1009_CTAEQTLQSDFLK (UniProt Q9NYV4) | -0.0275 | 0.00441
CELF2_O95319_174_GCAFVTFSTR (UniProt O95319) | 0.0275 | 0.0429
CDK5_Q00535_83_LTLVFEFCDQDLKK (UniProt Q00535) | -0.0323 | 0.223
CEP128_Q6ZU80_989_DSCSSSER (UniProt Q6ZU80) | -0.199 | -0.274
CEP170_Q5SW79_30_DDCELMLQSR (UniProt Q5SW79) | -0.0456 | 0.0936
CCT7_Q99832_511_INALTAASEAACLIVSVDETIK (UniProt Q99832) | 0.163 | 0.484
CENPF_P49454_2985_EMLETQVAHLCSQQSK (UniProt P49454) | 0.304 | 0.288
CD53_P19397_170_KVEGCYAK (UniProt P19397) | -0.25 | -0.0711
CD68_P34810_314_LQAAQLPHTGVFGQSFSCPSDR (UniProt P34810) | -0.335 | -0.0518
CD40_P25942_116+119_GTSETDTICTCEEGWHCTSEACESCVLHR (UniProt P25942) | -0.262 | -0.0416
CDK8_P49336_25_ERVEDLFEYEGCK (UniProt P49336) | -0.152 | -0.0999

Another view of part of the listing above.

| Target | probe-labelled cysteine peptide fold change (10 µM) | probe-labelled cysteine peptide fold change (50 µM) |
| --- | --- | --- |
| CDK1_P06493_119_SYLYQILQGIVFCHSR (UniProt P06493) | -0.0167 | -0.101 |
| CDK5RAP3_Q96JB5_68_INAAIQDMPESEEIAQLLSGSYIHYFHCLR (UniProt Q96JB5) | 0.106 | 0.283 |
| CEP164_Q9UPV0_437_ISEHLLDVDVLSPVLGGACR (UniProt Q9UPV0) | -0.298 | 0.236 |
| CDC42_P60953_157_YVECSALTQK (UniProt P60953) | 0.0457 | 0.0315 |
| CELF1_Q92879_177_AMHQAQTMEGCSSPMVVK (UniProt Q92879) | -0.311 | -0.155 |
| CENPF_P49454_2985_EMLETQVAHLCSQQSK (UniProt P49454) | 0.304 | 0.288 |
| CD40_P25942_116+119_GTSETDTICTCEEGWHCTSEACESCVLHR (UniProt P25942) | -0.262 | -0.0416 |

Later entries.

Target | probe-labelled cysteine peptide fold change (10 µM) | probe-labelled cysteine peptide fold change (50 µM)
CENPV_Q7Z7K6_154_HTGGCHCGAVR (UniProt Q7Z7K6) | 0.121 | 0.261
CDC42SE1_Q9NRR8_11_LGCCVVEKPQPK (UniProt Q9NRR8) | -0.057 | -0.899
CD276_Q5ZPR3_383_DLRPGDTVTITCSSYR (UniProt Q5ZPR3) | 0.0128 | 0.0319
CDC27_P30260_481_GYLALCSYNCK (UniProt P30260) | -0.155 | 0.268
CEP250_Q9BV73_2008_SLEASTATLQASLDACQAHSR (UniProt Q9BV73) | 0.113 | 0.0704
CDC34_P49427_93_MWHPNIYETGDVCISILHPPVDDPQSGELPSER (UniProt P49427) | 0.0445 | 0.0171
CD97_P48960_256_DTVCEDMTFSTWTPPPGVHSQTLSR (UniProt P48960) | -0.0984 | -0.115
CDC23_Q9UJX2_500_YIQDIYSCGEIVEHLEESTAFR (UniProt Q9UJX2) | -0.0959 | -0.296
CDC42_P60953_105_WVPEITHHCPK (UniProt P60953) | 0.0222 | -0.0283
CEP41_Q9BYV8_240_IIILYDDDERLASQAATTMCER (UniProt Q9BYV8) | 0.089 | 0.00114
CEP85_Q6P2H3_527_VTELESLLEETQAICR (UniProt Q6P2H3) | 0.0519 | 0.465
CDK5RAP2_Q96SN8_508_DLEVIQQNCYLMAAEDLELR (UniProt Q96SN8) | -0.00437 | 0.476
CDC40_O60508_553_VCIGAVWHPHETSK (UniProt O60508) | 0.104 | 0.0461
CEP152_O94986_1019_ETELQTCLDQSR (UniProt O94986) | 0.0172 | 0.0625
CEP55_Q53EZ4_443_CNIQYPATEHR (UniProt Q53EZ4) | 0.0641 | -0.15
CEPT1_Q9Y6K0_11+30_CGDSHPESPVGFGHMSTTGCVLNK (UniProt Q9Y6K0) | -1.98 | -2.17
CFL1_P23528_139_HELQANCYEEVK (UniProt P23528) | -0.0847 | -0.12
CDK5RAP2_Q96SN8_1811_VSLPEDGQCPLHCEQIGEMK (UniProt Q96SN8) | 0.0699 | -0.0886
CCT7_Q99832_29_EGTDSSQGIPQLVSNISACQVIAEAVR (UniProt Q99832) | 0.0492 | 0.104
